Source: publication PMC6017538

Protein sequences, listed by entry. Tags and fused reporters are not part of them.
UniProt A0QS98: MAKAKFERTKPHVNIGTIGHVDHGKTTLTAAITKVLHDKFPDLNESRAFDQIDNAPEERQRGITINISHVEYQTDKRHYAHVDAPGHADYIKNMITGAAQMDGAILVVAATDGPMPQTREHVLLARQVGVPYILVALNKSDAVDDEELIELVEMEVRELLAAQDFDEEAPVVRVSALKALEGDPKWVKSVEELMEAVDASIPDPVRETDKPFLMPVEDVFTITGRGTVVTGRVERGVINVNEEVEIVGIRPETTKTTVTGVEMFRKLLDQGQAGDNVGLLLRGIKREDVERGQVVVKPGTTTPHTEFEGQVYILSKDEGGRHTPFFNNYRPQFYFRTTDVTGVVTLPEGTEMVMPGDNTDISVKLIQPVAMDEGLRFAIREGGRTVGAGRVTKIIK

Biological target: T1, carboxypeptidase coded by Rv3627c (UniProt O06380)
T1 sequence: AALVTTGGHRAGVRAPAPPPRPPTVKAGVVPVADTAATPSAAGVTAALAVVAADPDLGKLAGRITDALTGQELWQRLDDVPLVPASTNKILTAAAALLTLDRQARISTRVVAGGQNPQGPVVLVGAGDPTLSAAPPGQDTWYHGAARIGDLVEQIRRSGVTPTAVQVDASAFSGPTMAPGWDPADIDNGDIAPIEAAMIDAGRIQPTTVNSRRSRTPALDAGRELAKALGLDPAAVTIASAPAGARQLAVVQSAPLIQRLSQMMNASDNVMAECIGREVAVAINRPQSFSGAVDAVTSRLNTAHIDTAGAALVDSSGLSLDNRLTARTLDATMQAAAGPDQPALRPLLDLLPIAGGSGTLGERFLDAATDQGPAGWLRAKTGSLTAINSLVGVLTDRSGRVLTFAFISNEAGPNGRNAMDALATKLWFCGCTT
Assay: affinity purification with mass spectrometry

## elongation factor Tu (MSMEG_1401, tuf) (from UniProt A0QS98 1-396)
  binding: binds

Results are given in words; binding and its absence hold for the method and conditions named. Binding seen in cells or lysates may run through a third protein. A yes stands for co-enrichment or nearness to the bait. Other partners may have been found.
